The chains behind the UniProt entries cited, without tags or fusion partners.
UniProt P17302: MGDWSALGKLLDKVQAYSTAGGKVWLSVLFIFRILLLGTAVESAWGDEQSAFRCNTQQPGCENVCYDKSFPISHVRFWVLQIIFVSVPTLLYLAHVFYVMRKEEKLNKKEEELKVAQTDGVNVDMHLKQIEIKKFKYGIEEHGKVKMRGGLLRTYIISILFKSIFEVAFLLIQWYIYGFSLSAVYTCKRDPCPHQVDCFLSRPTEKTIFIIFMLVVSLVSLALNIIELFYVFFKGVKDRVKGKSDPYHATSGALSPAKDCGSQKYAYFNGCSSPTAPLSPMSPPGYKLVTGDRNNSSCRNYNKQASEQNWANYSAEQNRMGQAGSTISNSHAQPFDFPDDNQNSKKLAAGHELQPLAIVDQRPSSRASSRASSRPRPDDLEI
UniProt O43823: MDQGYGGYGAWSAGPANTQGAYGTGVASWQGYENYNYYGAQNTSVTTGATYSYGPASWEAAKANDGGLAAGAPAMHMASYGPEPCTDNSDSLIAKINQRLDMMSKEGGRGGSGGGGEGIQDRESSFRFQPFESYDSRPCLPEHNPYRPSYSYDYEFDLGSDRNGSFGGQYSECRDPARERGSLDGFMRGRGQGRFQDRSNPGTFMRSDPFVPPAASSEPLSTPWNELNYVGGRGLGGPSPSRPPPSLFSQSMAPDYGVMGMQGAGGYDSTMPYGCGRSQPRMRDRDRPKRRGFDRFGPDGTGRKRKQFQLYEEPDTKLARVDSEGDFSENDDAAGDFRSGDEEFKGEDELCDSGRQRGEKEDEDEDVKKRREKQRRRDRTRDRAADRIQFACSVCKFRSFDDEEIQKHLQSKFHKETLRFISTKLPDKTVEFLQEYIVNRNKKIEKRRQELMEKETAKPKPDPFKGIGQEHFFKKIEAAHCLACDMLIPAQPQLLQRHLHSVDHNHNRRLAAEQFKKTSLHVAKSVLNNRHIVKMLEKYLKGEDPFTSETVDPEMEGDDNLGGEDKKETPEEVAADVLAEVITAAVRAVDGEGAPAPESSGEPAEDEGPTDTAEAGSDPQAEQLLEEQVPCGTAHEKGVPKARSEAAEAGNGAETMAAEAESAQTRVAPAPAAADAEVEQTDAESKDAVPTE

According to paper PMC4754773:

Biological target: connexin 43 (human (endogenous in A549 and L-O2)) (UniProt P17302)
Experiment: affinity purification with mass spectrometry; Co-IP from A549 cells with an anti-Cx43 antibody; products analysed by LTQ tandem mass spectrometry (ESI-MS)

binding: binds
Substance: A-kinase anchoring protein 95 (from UniProt O43823 1-692)

No constants are given. Whether binding was seen depends on the method and setting. In cells and extracts the contact can be indirect. A yes stands for co-enrichment or nearness to the bait. Other partners may have been found.
